Experiment [1] deals with Escherichia coli [ATCC 25922]. The experiment is described as follows: microbe, parasite or virus in culture. The following applies: ATCC25922. The procedure: (§1) The microorganisms (Staphylococcus aureus [ATCC 25923], Escherichia coli [ATCC 25922], and Propionibacterium acnes [ATCC 6919]) were obtained from Fuxiang Biotechnology (Shanghai, China). The five strains of K. pneumoniae clinical isolates (44, 48, 49, 50, and 51) were obtained from the Department of Critical Care Medicine, Shanghai Tenth People’s Hospital.
(§2) The antimicrobial assay was performed by broth microdilution method, following the guidelines of the Clinical and Laboratory Standards Institute. Strains (mentioned in Section 4.3) were inoculated into Mueller-Hinton broth (MH), oscillated (37 °C, 220 rpm, 12 h) to the logarithmic growth stage, and then diluted to 10^6 CFU/mL. […] Then, the absorbance was measured at 600 nm in a microplate reader (Epoch Biotek, Winooski, VT, USA). […] The minimum inhibitory concentration (MIC) was defined as the lowest concentration of an antimicrobial where there was no visible growth. After measuring the MIC, a 50 μL sample was taken from the growth well without visible bacteria, serially diluted with phosphate-buffered saline (PBS, pH = 7.0), then spread on an MH agar solid medium and incubated at 37 °C for 12 h. The number of colonies was calculated, and the minimum drug concentrations that killed 99.9% of bacteria were considered the minimum bactericidal concentration (MBC) of the peptide.

Experiment [2] has as its system Staphylococcus aureus [ATCC 25923]. The experiment is described as follows: microbe, parasite or virus in culture. The following applies: ATCC25923. How it is done:
as §1, §2

SMILES strings stand for the structures. Values after ≈ are worked out from the molar mass of the structure shown.

Consider `CC1(C)S[C@@H]2[C@H](NC(=O)[C@H](N)c3ccccc3)C(=O)N2[C@H]1C(=O)O` [Ampicillin, reference compound], for which the MIC in experiment [1] stood at 8 µg/mL (≈ 22.9 µM); in experiment [2], 0.25 µg/mL (≈ 0.715 µM).

The values above are taken from PMC10004598, “Identification and Characterization of a Novel Cathelicidin from Hydrophis cyanocinctus with Antimicrobial and Anti-Inflammatory Activity” (Molecules, 2023).
